Data taken from PMC3387196.
These are yes or no findings as the source states them, for the method shown. Binding seen in cells or lysates may run through a third protein. Some results given as binding are weak or reduced against the parent protein; the word gives no strength. For part of these data: Where a sequence is shown, tags or fusion partners need not be part of it.

Protein sequences, listed by entry. Tags and fused reporters are not part of them. Lines headed by an entry give the natural chain unless they say otherwise; changes in a name come on top. Residues count along the entry.
UniProt P46935: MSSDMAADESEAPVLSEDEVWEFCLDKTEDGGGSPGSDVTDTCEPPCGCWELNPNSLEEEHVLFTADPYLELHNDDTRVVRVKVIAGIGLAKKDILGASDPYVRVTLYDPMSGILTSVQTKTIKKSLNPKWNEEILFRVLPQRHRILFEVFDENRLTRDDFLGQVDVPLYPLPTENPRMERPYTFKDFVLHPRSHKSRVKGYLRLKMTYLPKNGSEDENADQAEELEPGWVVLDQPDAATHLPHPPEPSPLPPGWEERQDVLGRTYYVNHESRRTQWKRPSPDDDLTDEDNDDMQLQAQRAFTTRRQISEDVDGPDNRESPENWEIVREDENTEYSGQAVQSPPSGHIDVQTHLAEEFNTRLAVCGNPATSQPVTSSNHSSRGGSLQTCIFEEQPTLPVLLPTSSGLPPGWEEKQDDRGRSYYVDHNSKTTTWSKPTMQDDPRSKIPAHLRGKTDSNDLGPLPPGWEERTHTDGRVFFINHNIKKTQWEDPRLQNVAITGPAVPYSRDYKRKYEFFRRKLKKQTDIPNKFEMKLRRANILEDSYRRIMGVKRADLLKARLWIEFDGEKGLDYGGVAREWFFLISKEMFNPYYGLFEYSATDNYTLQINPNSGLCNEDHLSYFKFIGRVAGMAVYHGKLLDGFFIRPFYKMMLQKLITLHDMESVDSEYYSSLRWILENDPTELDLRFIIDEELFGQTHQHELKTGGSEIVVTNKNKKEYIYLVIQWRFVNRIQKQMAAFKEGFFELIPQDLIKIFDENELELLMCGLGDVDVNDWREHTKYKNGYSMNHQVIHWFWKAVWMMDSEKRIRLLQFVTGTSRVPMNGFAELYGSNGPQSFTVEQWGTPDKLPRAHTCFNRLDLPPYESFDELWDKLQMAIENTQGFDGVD
GST-Nedd4 WW (250-549): residues 250-549 of P46935

Columns and labels:
[1] = molecular target: FLAG-Kif26b (full-length), expressed in HEK293 cells (mouse) (UniProt Q7TNC6); assay: co-IP; HEK293 cells co-transfected with FLAG-Kif26b constructs and Myc-Nedd4; anti-FLAG beads, 2 h at 4°C; lysis buffer 50 mM Tris-HCl pH 7.5, 100 mM NaCl, 10% glycerol, 5 mM EDTA, 0.5% Triton X-100; immunoblot; in Figure 3A cells treated 6 h with DMSO or Roscovitine (20 µM)
[2] = molecular target: FLAG-Kif26b S1962A (mouse) (UniProt Q7TNC6); assay: as above
[3] = molecular target: FLAG-Kif26b T1859A (mouse) (UniProt Q7TNC6); assay: as above
[4] = molecular target: FLAG-Kif26b T1859A/S1962A (mouse) (UniProt Q7TNC6); assay: as above
[5] = molecular target: T1, FLAG-Kif26b ΔMotor (799-2112) (mouse) (UniProt Q7TNC6); assay: as above
T1 sequence: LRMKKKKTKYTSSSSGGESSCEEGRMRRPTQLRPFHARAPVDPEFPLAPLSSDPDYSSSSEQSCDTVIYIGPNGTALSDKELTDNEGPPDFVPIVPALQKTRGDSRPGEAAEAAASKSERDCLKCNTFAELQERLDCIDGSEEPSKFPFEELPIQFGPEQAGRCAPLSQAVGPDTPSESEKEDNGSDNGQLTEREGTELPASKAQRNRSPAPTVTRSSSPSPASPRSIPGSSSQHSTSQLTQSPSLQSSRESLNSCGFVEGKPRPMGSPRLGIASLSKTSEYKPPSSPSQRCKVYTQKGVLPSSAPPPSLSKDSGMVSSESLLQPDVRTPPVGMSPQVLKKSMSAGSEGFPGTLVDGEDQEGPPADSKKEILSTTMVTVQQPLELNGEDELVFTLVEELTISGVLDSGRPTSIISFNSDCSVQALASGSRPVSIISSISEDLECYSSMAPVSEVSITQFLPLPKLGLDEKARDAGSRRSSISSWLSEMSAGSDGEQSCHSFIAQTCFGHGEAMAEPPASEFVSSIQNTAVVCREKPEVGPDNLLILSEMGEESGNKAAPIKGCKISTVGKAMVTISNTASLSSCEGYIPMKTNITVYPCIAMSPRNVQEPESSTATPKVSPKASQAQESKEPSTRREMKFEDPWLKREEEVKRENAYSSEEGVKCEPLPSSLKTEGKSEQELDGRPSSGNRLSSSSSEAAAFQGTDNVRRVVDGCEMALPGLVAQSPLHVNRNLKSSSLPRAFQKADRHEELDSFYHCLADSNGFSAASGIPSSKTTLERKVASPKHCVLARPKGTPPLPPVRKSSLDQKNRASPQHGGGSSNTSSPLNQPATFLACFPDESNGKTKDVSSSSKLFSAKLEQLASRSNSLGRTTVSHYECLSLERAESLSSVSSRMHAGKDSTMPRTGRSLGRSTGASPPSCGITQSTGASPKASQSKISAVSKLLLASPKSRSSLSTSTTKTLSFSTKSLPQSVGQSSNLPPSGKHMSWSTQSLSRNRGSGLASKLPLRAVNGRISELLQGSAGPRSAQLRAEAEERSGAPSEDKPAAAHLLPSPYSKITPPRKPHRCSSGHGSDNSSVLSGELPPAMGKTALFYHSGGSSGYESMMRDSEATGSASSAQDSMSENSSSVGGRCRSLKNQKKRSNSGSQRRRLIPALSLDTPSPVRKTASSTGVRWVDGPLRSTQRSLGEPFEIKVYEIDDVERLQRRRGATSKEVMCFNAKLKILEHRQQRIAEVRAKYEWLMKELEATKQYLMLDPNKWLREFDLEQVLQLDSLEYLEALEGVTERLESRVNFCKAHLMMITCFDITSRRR

[6] = molecular target: Kif26b, endogenous in E14.5 mouse kidney (mouse (endogenous in E14.5 kidney)) (UniProt Q7TNC6); assay: co-IP; endogenous proteins; E14.5 kidney lysates, immunoprecipitation with anti-Kif26b antibody, immunoblot; kidneys cultured 8 h with or without roscovitine (20 µM) in Figure 7A; rabbit IgG as control
[7] = molecular target: GST-Nedd4 WW (250-549) (mouse) (UniProt P46935); assay: pull-down; lysates of HEK293 cells expressing FLAG-Kif26b incubated with purified GST or GST-tagged Nedd4 deletions; glutathione bead precipitates immunoblotted; only the target purified

## Myc-Nedd4 wild type (full-length mouse Nedd4) (from UniProt P46935 1-887) (enzyme)
[1]
  binding: binds
[2]
  binding: binds
[3]
  binding: binds
[4]
  binding: binds
[5]
  binding: binds

## Myc-Nedd4 CS (catalytically inactive C854S mutant) (from UniProt P46935 1-887) (enzyme)
[1]
  binding: binds

## Nedd4, endogenous in mouse kidney (from UniProt P46935 1-887) (enzyme)
[6]
  binding: binds

## FLAG-Kif26b (full-length), expressed in HEK293 cells (from UniProt Q7TNC6 1-2112)
[7]
  binding: binds

## CDK5, endogenous in E14.5 mouse kidney (from UniProt P49615 1-292) (enzyme)
[6]
  binding: binds
